Assay results from the supplement of paper PMC8728848.
The list shows a part of the results.

Columns and labels:
Test in all cases: glycan array binding signal (z-score within array); higher = stronger binding
Settings in all cases: glycan notation: IUPAC condensed, linker removed
[1] = target: Gal(a1-3)[Gal(a1-4)]Gal(b1-4)GlcNAc
In short: (§1)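 Glycan array data came from 3228 arrays in the Consortium for Functional Glycomics database, and only arrays with an available protein sequence were kept. Glycan names were put into IUPAC-condensed notation, and columns mapping to the same glycan were averaged. The binding signal is a within-array Z-score, averaged across arrays of one protein sequence run at different concentrations or buffers and across linkers. A negative Z-score can be read as non-binding.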

[2] = target: Gal(a1-4)Gal(b1-3)GlcNAc(b1-2)Man(a1-3)[Gal(a1-4)Gal(b1-3)GlcNAc(b1-2)Man(a1-6)]Man(b1-4)GlcNAc(b1-4)GlcNAc
In short: as §1

Gal(a1-4)Gal(b1-4)Glc = target: Gal(a1-4)Gal(b1-4)Glc
In short: as §1

Gal(a1-4)Gal(b1-4)GlcNAc = target: Gal(a1-4)Gal(b1-4)GlcNAc
In short: as §1

[3] = target: Gal(a1-4)Gal(b1-4)GlcNAc(b1-2)Man(a1-3)[Gal(a1-4)Gal(b1-4)GlcNAc(b1-2)Man(a1-6)]Man(b1-4)GlcNAc(b1-4)GlcNAc
In short: as §1

[4] = target: Gal(a1-4)Gal(b1-4)GlcNAc(b1-3)Gal(b1-4)Glc
In short: as §1

Gal(a1-4)GlcNAc = target: Gal(a1-4)GlcNAc
In short: as §1

Gal(a1-6)Glc = target: Gal(a1-6)Glc
In short: as §1

Gal(b1-2)Gal = target: Gal(b1-2)Gal
In short: as §1

Gal(b1-3)Gal = target: Gal(b1-3)Gal
In short: as §1

Gal(b1-3)Gal(b1-4)GlcNAc = target: Gal(b1-3)Gal(b1-4)GlcNAc
In short: as §1

[5] = target: Gal(b1-3)Gal(b1-4)GlcNAc(b1-2)Man(a1-3)[Gal(b1-3)Gal(b1-4)GlcNAc(b1-2)Man(a1-6)]Man(b1-4)GlcNAc(b1-4)GlcNAc
In short: as §1

Gal(b1-3)GalNAc = target: Gal(b1-3)GalNAc
In short: as §1

[6] = target: Gal(b1-3)GalNAc(a1-3)[Fuc(a1-2)]Gal(b1-4)Glc
In short: as §1

[7] = target: Gal(b1-3)GalNAc(a1-3)[Fuc(a1-2)]Gal(b1-4)GlcNAc
In short: as §1

Gal(b1-3)GalNAc(b1-3)Gal = target: Gal(b1-3)GalNAc(b1-3)Gal
In short: as §1

[8] = target: Gal(b1-3)GalNAc(b1-3)Gal(a1-4)Gal(b1-4)Glc
In short: as §1

[9] = target: Gal(b1-3)GalNAc(b1-4)Gal(b1-4)Glc
In short: as §1

[10] = target: Gal(b1-3)GalNAc(b1-4)[Neu5Ac(a2-3)]Gal(b1-4)Glc
In short: as §1

Gal(b1-3)GlcNAc = target: Gal(b1-3)GlcNAc
In short: as §1

[11] = target: Gal(b1-3)GlcNAc(a1-3)Gal(b1-4)GlcNAc
In short: as §1

[12] = target: Gal(b1-3)GlcNAc(a1-6)Gal(b1-4)GlcNAc
In short: as §1

Gal(b1-3)GlcNAc(b1-2)Man = target: Gal(b1-3)GlcNAc(b1-2)Man
In short: as §1

[13] = target: Gal(b1-3)GlcNAc(b1-2)Man(a1-3)[Gal(b1-3)GlcNAc(b1-2)Man(a1-6)]Man(b1-4)GlcNAc(b1-4)GlcNAc
In short: as §1

[14] = target: Gal(b1-3)GlcNAc(b1-2)Man(a1-3)[Gal(b1-3)GlcNAc(b1-2)Man(a1-6)]Man(b1-4)GlcNAc(b1-4)[Fuc(a1-6)]GlcNAc
In short: as §1

[15] = target: Gal(b1-3)GlcNAc(b1-2)Man(a1-3)[GlcNAc(b1-4)][Gal(b1-3)GlcNAc(b1-2)Man(a1-6)]Man(b1-4)GlcNAc(b1-4)GlcNAc
In short: as §1

[16] = target: Gal(b1-3)GlcNAc(b1-2)[Gal(b1-3)GlcNAc(b1-6)]Man(a1-6)[Gal(b1-3)GlcNAc(b1-2)Man(a1-3)]Man(b1-4)GlcNAc(b1-4)GlcNAc
In short: as §1

[17] = target: Gal(b1-3)GlcNAc(b1-3)Gal(b1-3)GlcNAc
In short: as §1

[18] = target: Gal(b1-3)GlcNAc(b1-3)Gal(b1-4)Glc
In short: as §1

[19] = target: Gal(b1-3)GlcNAc(b1-3)Gal(b1-4)GlcNAc
In short: as §1

[20] = target: Gal(b1-3)GlcNAc(b1-3)Gal(b1-4)GlcNAc(b1-2)Man(a1-3)[Gal(b1-3)GlcNAc(b1-3)Gal(b1-4)GlcNAc(b1-2)Man(a1-6)]Man(b1-4)GlcNAc(b1-4)GlcNAc
In short: as §1

[21] = target: Gal(b1-3)GlcNAc(b1-3)Gal(b1-4)GlcNAc(b1-2)[Gal(b1-3)GlcNAc(b1-3)Gal(b1-4)GlcNAc(b1-6)]Man(a1-6)[Gal(b1-3)GlcNAc(b1-3)Gal(b1-4)GlcNAc(b1-2)Man(a1-3)]Man(b1-4)GlcNAc(b1-4)[Fuc(a1-6)]GlcNAc
In short: as §1

[22] = target: Gal(b1-3)GlcNAc(b1-3)Gal(b1-4)GlcNAc(b1-3)Gal(b1-4)GlcNAc(b1-2)[Gal(b1-3)GlcNAc(b1-3)Gal(b1-4)GlcNAc(b1-3)Gal(b1-4)GlcNAc(b1-6)]Man(a1-6)[Gal(b1-3)GlcNAc(b1-3)Gal(b1-4)GlcNAc(b1-3)Gal(b1-4)GlcNAc(b1-2)Man(a1-3)]Man(b1-4)GlcNAc(b1-4)[Fuc(a1-6)]GlcNAc
In short: as §1

[23] = target: Gal(b1-3)GlcNAc(b1-3)Gal(b1-4)GlcNAc(b1-6)[Gal(b1-3)GlcNAc(b1-3)]Gal(b1-4)Glc
In short: as §1

[24] = target: Gal(b1-3)GlcNAc(b1-3)Gal(b1-4)[Fuc(a1-3)]GlcNAc(b1-6)[Gal(b1-3)GlcNAc(b1-3)]Gal(b1-4)Glc
In short: as §1

[25] = target: Gal(b1-3)GlcNAc(b1-3)GalNAc
In short: as §1

[26] = target: Gal(b1-3)GlcNAc(b1-6)Gal(b1-4)GlcNAc
In short: as §1

[27] = target: Gal(b1-3)GlcNAc(b1-6)GalNAc
In short: as §1

[28] = target: Gal(b1-3)GlcNAc(b1-6)[Gal(b1-3)]GalNAc
In short: as §1

Gal(b1-3)GlcNAc6S = target: Gal(b1-3)GlcNAc6S
In short: as §1

[29] = target: Gal(b1-3)[Fuc(a1-4)]GlcNAc
In short: as §1

[30] = target: Gal(b1-3)[Fuc(a1-4)]GlcNAc(b1-2)Man
In short: as §1

[31] = target: Gal(b1-3)[Fuc(a1-4)]GlcNAc(b1-2)Man(a1-3)[Gal(b1-3)[Fuc(a1-4)]GlcNAc(b1-2)Man(a1-6)]Man(b1-4)GlcNAc(b1-4)[Fuc(a1-6)]GlcNAc
In short: as §1

[32] = target: Gal(b1-3)[Fuc(a1-4)]GlcNAc(b1-3)Gal(b1-3)[Fuc(a1-4)]GlcNAc
In short: as §1

[33] = target: Gal(b1-3)[Fuc(a1-4)]GlcNAc(b1-3)Gal(b1-4)GlcNAc
In short: as §1

B1: Gal 10 (Homo sapiens), Q05315 (protein)
chain: MSLLPVPYTEAASLSTGSTVTIKGRPLVCFLNEPYLQVDFHTEMKEESDIVFHFQVCFGRRVVMNSREYGAWKQQVESKNMPFQDGQEFELSISVLPDKYQVMVNGQSSYTFDHRIKPEAVKMVQVWRDISLTKFNVSYLKR
- glycan array binding signal (z-score) [1]: 0.625
- glycan array binding signal (z-score) [2]: 0.114
- glycan array binding signal (z-score) (Gal(a1-4)Gal(b1-4)Glc): -0.717
- glycan array binding signal (z-score) (Gal(a1-4)Gal(b1-4)GlcNAc): -0.337
- glycan array binding signal (z-score) [3]: -0.131
- glycan array binding signal (z-score) [4]: -0.109
- glycan array binding signal (z-score) (Gal(a1-4)GlcNAc): -0.059
- glycan array binding signal (z-score) (Gal(a1-6)Glc): -0.205
- glycan array binding signal (z-score) (Gal(b1-2)Gal): -0.095
- glycan array binding signal (z-score) (Gal(b1-3)Gal): -0.045
- glycan array binding signal (z-score) (Gal(b1-3)Gal(b1-4)GlcNAc): -0.043
- glycan array binding signal (z-score) [5]: -0.754
- glycan array binding signal (z-score) (Gal(b1-3)GalNAc): 0.117
- glycan array binding signal (z-score) [6]: 0.424
- glycan array binding signal (z-score) [7]: 0.496
- glycan array binding signal (z-score) (Gal(b1-3)GalNAc(b1-3)Gal): -0.683
- glycan array binding signal (z-score) [8]: -0.196
- glycan array binding signal (z-score) [9]: 0.344
- glycan array binding signal (z-score) [10]: -0.137
- glycan array binding signal (z-score) (Gal(b1-3)GlcNAc): -0.437
- glycan array binding signal (z-score) [11]: 0.167
- glycan array binding signal (z-score) [12]: 0.321
- glycan array binding signal (z-score) (Gal(b1-3)GlcNAc(b1-2)Man): -0.235
- glycan array binding signal (z-score) [13]: 0.125
- glycan array binding signal (z-score) [14]: 0.084
- glycan array binding signal (z-score) [15]: 0.208
- glycan array binding signal (z-score) [16]: 0.32
- glycan array binding signal (z-score) [17]: -0.609
- glycan array binding signal (z-score) [18]: -0.283
- glycan array binding signal (z-score) [19]: -0.622
- glycan array binding signal (z-score) [20]: 1.6
- glycan array binding signal (z-score) [21]: 0.035
- glycan array binding signal (z-score) [22]: 0.55
- glycan array binding signal (z-score) [23]: 0
- glycan array binding signal (z-score) [24]: 0.128
- glycan array binding signal (z-score) [25]: -0.812
- glycan array binding signal (z-score) [26]: -0.266
- glycan array binding signal (z-score) [27]: -0.5
- glycan array binding signal (z-score) [28]: 1.27
- glycan array binding signal (z-score) (Gal(b1-3)GlcNAc6S): -0.063
- glycan array binding signal (z-score) [29]: 0.455
- glycan array binding signal (z-score) [30]: -0.203
- glycan array binding signal (z-score) [31]: 0.601
- glycan array binding signal (z-score) [32]: 1.04
- glycan array binding signal (z-score) [33]: -0.651
